# Where a chain is given by its changes, count along the chain named. The list shows a part of the results. For some of these results: At the low end of the ranking the order means little. For some of these results: Construct or isoform of the protein are uncertain.
# Key:
# Settings in all cases: yeast three-hybrid, YBZ-1, SC-Leu-His + 0.5 mM 3-AT, 4 days
# [1] = target: T1, PUM1 PUF domain R1-QFR R2-VFQ R6-SWD S863Q + R864F + Q867R + N899V + Y900F + N1043S + Y1044W + Q1047D (UniProt Q14671)
# T1 sequence: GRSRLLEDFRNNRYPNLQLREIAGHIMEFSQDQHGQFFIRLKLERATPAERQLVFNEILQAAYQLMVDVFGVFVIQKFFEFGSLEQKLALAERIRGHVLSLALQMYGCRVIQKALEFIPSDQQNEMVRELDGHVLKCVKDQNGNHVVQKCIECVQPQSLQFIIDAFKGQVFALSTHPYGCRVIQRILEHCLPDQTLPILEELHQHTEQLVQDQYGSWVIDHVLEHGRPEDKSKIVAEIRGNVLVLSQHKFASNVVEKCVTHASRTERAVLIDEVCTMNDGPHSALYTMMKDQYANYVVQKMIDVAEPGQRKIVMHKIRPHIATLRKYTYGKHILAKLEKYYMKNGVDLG
# [2] = target: T2, PUM1 PUF domain R2-VFQ R3-THE R4-TFR N899V + Y900F + C935T + R936H + Q939E + N971T + H972F + Q975R (UniProt Q14671)
# T2 sequence: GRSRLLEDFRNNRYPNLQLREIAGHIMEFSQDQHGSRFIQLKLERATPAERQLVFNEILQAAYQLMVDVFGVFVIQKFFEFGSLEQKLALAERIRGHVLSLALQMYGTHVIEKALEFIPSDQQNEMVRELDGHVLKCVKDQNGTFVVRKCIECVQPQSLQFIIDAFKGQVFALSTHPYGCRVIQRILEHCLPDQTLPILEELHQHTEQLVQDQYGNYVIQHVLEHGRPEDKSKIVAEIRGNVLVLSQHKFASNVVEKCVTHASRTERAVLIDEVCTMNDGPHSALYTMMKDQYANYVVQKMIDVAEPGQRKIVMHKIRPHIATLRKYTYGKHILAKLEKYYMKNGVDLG
# [3] = target: T3, PUM1 PUF domain R3-THE R4-TFR C935T + R936H + Q939E + N971T + H972F + Q975R (UniProt Q14671)
# T3 sequence: T2 sequence with V72N, F73Y
# [4] = target: T4, PUM1 PUF domain R3-THE R4-TFR R7-NPG C935T + R936H + Q939E + N971T + H972F + Q975R + S1079N + N1080P + E1083G (UniProt Q14671)
# T4 sequence: T2 sequence with V72N, F73Y, S252N, N253P, E256G
# [5] = target: T5, PUM1 PUF domain R5-PHQ R6-SWD C1007P + R1008H + N1043S + Y1044W + Q1047D (UniProt Q14671)
# T5 sequence: T1 sequence with Q36S, F37R, R40Q, V72N, F73Y, C180P, R181H
# [6] = target: T6, PUM1 PUF domain R3-THE R4-TFR R7-NPG C935T + R936H + Q939E + N971T + H972F + Q975R + S1079N + N1080P + E1083G (Homo sapiens) (UniProt Q14671)
# T6 sequence: T2 sequence with V72N, F73Y, S252N, N253P, E256G
# [7] = target: T7, PUM1 PUF domain R1-QFR R2-VFQ R7-NPG S863Q + R864F + Q867R + N899V + Y900F + S1079N + N1080P + E1083G (UniProt Q14671)
# T7 sequence: T1 sequence with S216N, W217Y, D220Q, S252N, N253P, E256G
# [8] = target: T8, PUM1 PUF domain R2-KLV N899K + Y900L + Q903V (UniProt Q14671)
# T8 sequence: T1 sequence with Q36S, F37R, R40Q, V72K, F73L, Q76V, S216N, W217Y, D220Q
# [9] = target: T9, PUM1 PUF domain R2-KVA N899K + Y900V + Q903A (UniProt Q14671)
# T9 sequence: T1 sequence with Q36S, F37R, R40Q, V72K, F73V, Q76A, S216N, W217Y, D220Q
# [10] = target: T10, PUM1 PUF domain R2-MVW N899M + Y900V + Q903W (UniProt Q14671)
# T10 sequence: T1 sequence with Q36S, F37R, R40Q, V72M, F73V, Q76W, S216N, W217Y, D220Q
# [11] = target: T11, PUM1 PUF domain R2-PVM N899P + Y900V + Q903M (UniProt Q14671)
# T11 sequence: T1 sequence with Q36S, F37R, R40Q, V72P, F73V, Q76M, S216N, W217Y, D220Q
# [12] = target: T12, PUM1 PUF domain R2-PWL N899P + Y900W + Q903L (UniProt Q14671)
# T12 sequence: T1 sequence with Q36S, F37R, R40Q, V72P, F73W, Q76L, S216N, W217Y, D220Q
# [13] = target: T13, PUM1 PUF domain R2-QWW N899Q + Y900W + Q903W (UniProt Q14671)
# T13 sequence: T1 sequence with Q36S, F37R, R40Q, V72Q, F73W, Q76W, S216N, W217Y, D220Q
# [14] = target: T14, PUM1 PUF domain R2-RKC N899R + Y900K + Q903C (UniProt Q14671)
# T14 sequence: T1 sequence with Q36S, F37R, R40Q, V72R, F73K, Q76C, S216N, W217Y, D220Q
# [15] = target: T15, PUM1 PUF domain R2-RKS N899R + Y900K + Q903S (UniProt Q14671)
# T15 sequence: T1 sequence with Q36S, F37R, R40Q, V72R, F73K, Q76S, S216N, W217Y, D220Q
# [16] = target: T16, PUM1 PUF domain R2-RTS N899R + Y900T + Q903S (UniProt Q14671)
# T16 sequence: T1 sequence with Q36S, F37R, R40Q, V72R, F73T, Q76S, S216N, W217Y, D220Q
# [17] = target: T17, PUM1 PUF domain R2-RVE N899R + Y900V + Q903E (UniProt Q14671)
# T17 sequence: T1 sequence with Q36S, F37R, R40Q, V72R, F73V, Q76E, S216N, W217Y, D220Q
# [18] = target: T18, PUM1 PUF domain R6-SWD R7-NPG N1043S + Y1044W + Q1047D + S1079N + N1080P + E1083G (Homo sapiens) (UniProt Q14671)
# T18 sequence: T1 sequence with Q36S, F37R, R40Q, V72N, F73Y, S252N, N253P, E256G
sequence,measurement,setting,value
GGCUAGAACUAGUGGAUCCCCCGGCGCCCGGCGGCUCGAGCCCGGGUAAGUGGUCGUAGUCUGCAUGCCGCCGGGCGCCAUGCCUGCAGGUCGACUCUAGAAAACAUG,binding signal (log2 enrichment (interaction score)),[1],-5.94
same,binding signal (log2 enrichment (interaction score)),[2],-5.73
same,binding signal (log2 enrichment (interaction score)),[3],-7.77
same,binding signal (log2 enrichment (interaction score)),[4],-2.24
same,binding signal (log2 enrichment (interaction score)),[5],-8.49
GGCUAGAACUAGUGGAUCCCCCGGCGCCCGGCGGCUCGAGCCCGGGUAAGUGGACAGAGUCUGCAUGCCGCCGGGCGCCAUGCCUGCAGGUCGACUCUAGAAAACAUG,binding signal (log2 enrichment (interaction score)),[1],-5.92
same,binding signal (log2 enrichment (interaction score)),[2],-5.15
same,binding signal (log2 enrichment (interaction score)),[6],-1.69
same,binding signal (log2 enrichment (interaction score)),[5],-8.13
GGCUAGAACUAGUGGAUCCCCCGGCGCCCGGCGGCUCGAGCCCGGGUAAGUGUAGGUAGUCUGCAUGCCGCCGGGCGCCAUGCCUGCAGGUCGACUCUAGAAAACAUG,binding signal (log2 enrichment (interaction score)),[1],-4.67
same,binding signal (log2 enrichment (interaction score)),[2],-5.63
same,binding signal (log2 enrichment (interaction score)),[5],< -7.61
GGCUAGAACUAGUGGAUCCCCCGGCGCCCGGCGGCUCGAGCCCGGGUAAGCCUGAGCUGUCUGCAUGCCGCCGGGCGCCAUGCCUGCAGGUCGACUCUAGAAAACAUG,binding signal (log2 enrichment (interaction score)),[7],-5.62
GGCUAGAACUAGUGGAUCCCCCGGCGCCCGGCGGCUCGAGCCCGGGUAAGUUAAAGACGUCUGCAUGCCGCCGGGCGCCAUGCCUGCAGGUCGACUCUAGAAAACAUG,binding signal (log2 enrichment (interaction score)),[1],-5.65
same,binding signal (log2 enrichment (interaction score)),[2],< -5.59
same,binding signal (log2 enrichment (interaction score)),[6],-1.64
GGCUAGAACUAGUGGAUCCCCCGGCGCCCGGCGGCUCGAGCCCGGGUAAGUGUGGGAGGUCUGCAUGCCGCCGGGCGCCAUGCCUGCAGGUCGACUCUAGAAAACAUG,binding signal (log2 enrichment (interaction score)),[7],-6.41
GGCUAGAACUAGUGGAUCCCCCGGCGCCCGGCGGCUCGAGCCCGGGUAAGUUGGCAAAGUCUGCAUGCCGCCGGGCGCCAUGCCUGCAGGUCGACUCUAGAAAACAUG,binding signal (log2 enrichment (interaction score)),[7],-5.87
same,binding signal (log2 enrichment (interaction score)),[2],-5.77
GGCUAGAACUAGUGGAUCCCCCGGCGCCCGGCGGCUCGAGCCCGGGUAAGUUAACUGAGUCUGCAUGCCGCCGGGCGCCAUGCCUGCAGGUCGACUCUAGAAAACAUG,binding signal (log2 enrichment (interaction score)),[7],-5.22
same,binding signal (log2 enrichment (interaction score)),[2],-5.07
GGCUAGAACUAGUGGAUCCCCCGGCGCCCGGCGGCUCGAGCCCGGGUAAGUGUAAAAAGUCUGCAUGCCGCCGGGCGCCAUGCCUGCAGGUCGACUCUAGAAAACAUG,binding signal (log2 enrichment (interaction score)),[7],-5.61
same,binding signal (log2 enrichment (interaction score)),[8],< -9.16
same,binding signal (log2 enrichment (interaction score)),[9],< -8.45
same,binding signal (log2 enrichment (interaction score)),[10],< -8.65
same,binding signal (log2 enrichment (interaction score)),[11],< -8.09
same,binding signal (log2 enrichment (interaction score)),[12],< -9.01
same,binding signal (log2 enrichment (interaction score)),[13],< -7.36
same,binding signal (log2 enrichment (interaction score)),[14],< -8
same,binding signal (log2 enrichment (interaction score)),[15],< -8.6
same,binding signal (log2 enrichment (interaction score)),[16],< -9.29
same,binding signal (log2 enrichment (interaction score)),[17],< -7.22
same,binding signal (log2 enrichment (interaction score)),[2],-6.1
same,binding signal (log2 enrichment (interaction score)),[3],-6.76
same,binding signal (log2 enrichment (interaction score)),[4],-2.96
same,binding signal (log2 enrichment (interaction score)),[5],< -8.21
same,binding signal (log2 enrichment (interaction score)),[18],-1.09

# A second format for some results above.
sequence | measurement | setting | value
GGCUAGAACUAGUGGAUCCCCCGGCGCCCGGCGGCUCGAGCCCGGGUAAGUGGACAGAGUCUGCAUGCCGCCGGGCGCCAUGCCUGCAGGUCGACUCUAGAAAACAUG | binding signal (log2 enrichment (interaction score)) | [5] | -8.13
GGCUAGAACUAGUGGAUCCCCCGGCGCCCGGCGGCUCGAGCCCGGGUAAGUGUAAAAAGUCUGCAUGCCGCCGGGCGCCAUGCCUGCAGGUCGACUCUAGAAAACAUG | binding signal (log2 enrichment (interaction score)) | [9] | < -8.45

# — article PMC8384837
